Publication PMC12109296
Results are given in words; binding and its absence hold for the method and conditions named. In cells and extracts the contact can be indirect. Some entries that bind do so weakly or less than the wild type. Tags and fused reporters may be left off the sequences shown.

Amino acid sequences for entries named in this document (tags omitted).
UniProt Q9UPP1: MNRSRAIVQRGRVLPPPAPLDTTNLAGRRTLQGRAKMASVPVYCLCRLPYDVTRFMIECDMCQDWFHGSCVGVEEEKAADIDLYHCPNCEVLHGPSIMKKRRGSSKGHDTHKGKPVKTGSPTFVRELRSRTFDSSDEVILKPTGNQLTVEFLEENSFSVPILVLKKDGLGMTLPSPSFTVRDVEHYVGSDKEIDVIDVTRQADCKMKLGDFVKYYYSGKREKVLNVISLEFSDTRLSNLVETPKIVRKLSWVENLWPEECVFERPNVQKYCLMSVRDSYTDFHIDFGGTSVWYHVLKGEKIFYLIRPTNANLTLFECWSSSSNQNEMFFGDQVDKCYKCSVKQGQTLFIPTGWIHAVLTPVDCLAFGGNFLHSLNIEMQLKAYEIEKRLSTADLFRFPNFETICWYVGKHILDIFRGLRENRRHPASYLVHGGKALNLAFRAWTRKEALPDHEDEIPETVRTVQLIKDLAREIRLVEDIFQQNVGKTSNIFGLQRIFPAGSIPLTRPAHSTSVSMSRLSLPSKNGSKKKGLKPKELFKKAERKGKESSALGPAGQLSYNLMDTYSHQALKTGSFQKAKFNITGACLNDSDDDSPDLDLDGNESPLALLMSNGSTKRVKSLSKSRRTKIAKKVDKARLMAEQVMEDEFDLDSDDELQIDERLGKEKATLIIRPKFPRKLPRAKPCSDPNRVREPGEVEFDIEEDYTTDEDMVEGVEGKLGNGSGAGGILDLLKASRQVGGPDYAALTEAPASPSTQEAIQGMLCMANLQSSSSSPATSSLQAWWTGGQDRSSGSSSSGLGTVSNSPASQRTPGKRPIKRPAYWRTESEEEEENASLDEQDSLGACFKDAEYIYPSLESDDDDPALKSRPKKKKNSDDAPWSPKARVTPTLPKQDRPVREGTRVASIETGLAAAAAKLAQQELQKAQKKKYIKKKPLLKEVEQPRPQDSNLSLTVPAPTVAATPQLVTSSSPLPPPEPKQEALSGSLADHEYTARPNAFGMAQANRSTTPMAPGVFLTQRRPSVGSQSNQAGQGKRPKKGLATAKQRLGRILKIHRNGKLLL

B1: GFP-KDM2A (amino acids 667–1162) (domain or fragment, UniProt Q9Y2K7-1 667-1162)
chain: PNCWECPKCYQEDSSEKAQKRKMEESDEEAVQAKVLRPLRSCDEPLTPPPHSPTSMLQLIHDPVSPRGMVTRSSPGAGPSDHHSASRDERFKRRQLLRLQATERTMVREKENNPSGKKELSEVEKAKIRGSYLTVTLQRPTKELHGTSIVPKLQAITASSANLRHSPRVLVQHCPARTPQRGDEEGLGGEEEEEEEEEEEDDSAEEGGAARLNGRGSWAQDGDESWMQREVWMSVFRYLSRRELCECMRVCKTWYKWCCDKRLWTKIDLSRCKAIVPQALSGIIKRQPVSLDLSWTNISKKQLTWLVNRLPGLKDLLLAGCSWSAVSALSTSSCPLLRTLDLRWAVGIKDPQIRDLLTPPADKPGQDNRSKLRNMTDFRLAGLDITDATLRLIIRHMPLLSRLDLSHCSHLTDQSSNLLTAVGSSTRYSLTELNMAGCNKLTDQTLIYLRRIANVTLIDLRGCKQITRKACEHFISDLSINSLYCLSDEKLIQKIS
B2: KDM2A (amino acids 1–732)-GFP (domain or fragment, UniProt Q9Y2K7-1 1-732)
chain: MEPEEERIRYSQRLRGTMRRRYEDDGISDDEIEGKRTFDLEEKLHTNKYNANFVTFMEGKDFNVEYIQRGGLRDPLIFKNSDGLGIKMPDPDFTVNDVKMCVGSRRMVDVMDVNTQKGIEMTMAQWTRYYETPEEEREKLYNVISLEFSHTRLENMVQRPSTVDFIDWVDNMWPRHLKESQTESTNAILEMQYPKVQKYCLMSVRGCYTDFHVDFGGTSVWYHIHQGGKVFWLIPPTAHNLELYENWLLSGKQGDIFLGDRVSDCQRIELKQGYTFVIPSGWIHAVYTPTDTLVFGGNFLHSFNIPMQLKIYNIEDRTRVPNKFRYPFYYEMCWYVLERYVYCITNRSHLTKEFQKESLSMDLELNGLESGNGDEEAVDREPRRLSSRRSVLTSPVANGVNLDYDGLGKTCRSLPSLKKTLAGDSSSDCSRGSHNGQVWDPQCAPRKDRQVHLTHFELEGLRCLVDKLESLPLHKKCVPTGIEDEDALIADVKILLEELANSDPKLALTGVPIVQWPKRDKLKFPTRPKVRVPTIPITKPHTMKPAPRLTPVRPAAASPIVSGARRRRVRCRKCKACVQGECGVCHYCRDMKKFGGPGRMKQSCVLRQCLAPRLPHSVTCSLCGEVDQNEETQDFEKKLMECCICNEIVHPGCLQMDGEGLLNEELPNCWECPKCYQEDSSEKAQKRKMEESDEEAVQAKVLRPLRSCDEPLTPPPHSPTSMLQLIHDPVSP
B3: GFP fusion of KDM2A (amino acids 822–946) (domain or fragment, UniProt Q9Y2K7-1 822-946)
chain: ITASSANLRHSPRVLVQHCPARTPQRGDEEGLGGEEEEEEEEEEEDDSAEEGGAARLNGRGSWAQDGDESWMQREVWMSVFRYLSRRELCECMRVCKTWYKWCCDKRLWTKIDLSRCKAIVPQAL
B4: GFP fusion of KDM2A (amino acids 822–898) (domain or fragment, UniProt Q9Y2K7-1 822-898)
chain: ITASSANLRHSPRVLVQHCPARTPQRGDEEGLGGEEEEEEEEEEEDDSAEEGGAARLNGRGSWAQDGDESWMQREVW
B5: GFP fusion of KDM2A (amino acids 893–946) (domain or fragment, UniProt Q9Y2K7-1 893-946)
chain: MQREVWMSVFRYLSRRELCECMRVCKTWYKWCCDKRLWTKIDLSRCKAIVPQAL

Biological target: Flag-tagged PHF8 (PHD finger protein 8) (UniProt Q9UPP1)
Test: co-IP; Flag-PHF8 co-expressed with KDM2A or KDM2A constructs in 293T cells; lysates in IP buffer (0.1% Triton X-100, 300 mM NaCl, 300 mM sucrose, 1 mM MgCl2, 1 mM EGTA, 10 mM PIPES pH 7.0) precipitated with anti-Flag M2 agarose; Western blot with anti-KDM2A or anti-GFP; in Figure 4A cells with or without 2 mM 2DG for 2 h

**Q.** With B1 as the binder, how does the binding read?
**A.** binds

**Q.** Which binding does the source give for B2 here?
**A.** binds weakly

**Q.** With B3 as the binder, how does the binding read?
**A.** binds

**Q.** ANVTLIDLRGCKQITRKACEHFISDLSINSLYCLSDEKLIQKIS (domain or fragment, UniProt Q9Y2K7-1 1119-1162) [GFP fusion of KDM2A (amino acids 1119–1162)] was tested. Which binding did it give?
**A.** binds

**Q.** How did the binding turn out when B4 was run?
**A.** no binding

**Q.** How did the binding turn out when B5 was run?
**A.** no binding
